Results as given in the supplement of paper PMC10849652.
The list shows a part of the results.

Amino acid sequences for entries named in this document (tags omitted). A change or cut given only in a name is not applied to a line headed by its entry.
UniProt O75030: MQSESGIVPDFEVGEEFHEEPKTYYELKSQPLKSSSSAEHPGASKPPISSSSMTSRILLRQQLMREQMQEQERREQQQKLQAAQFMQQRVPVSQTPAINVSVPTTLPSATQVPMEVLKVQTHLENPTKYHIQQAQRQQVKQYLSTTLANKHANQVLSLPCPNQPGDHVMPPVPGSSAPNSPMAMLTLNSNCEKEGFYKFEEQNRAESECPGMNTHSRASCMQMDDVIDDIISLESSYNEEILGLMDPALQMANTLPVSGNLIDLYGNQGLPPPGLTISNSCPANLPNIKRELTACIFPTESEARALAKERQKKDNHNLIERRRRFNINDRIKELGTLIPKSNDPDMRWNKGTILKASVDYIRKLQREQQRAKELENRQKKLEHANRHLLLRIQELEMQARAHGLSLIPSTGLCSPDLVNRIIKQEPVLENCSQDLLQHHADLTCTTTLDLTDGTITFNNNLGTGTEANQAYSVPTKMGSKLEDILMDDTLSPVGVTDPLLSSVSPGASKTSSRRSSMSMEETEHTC
UniProt Q15773: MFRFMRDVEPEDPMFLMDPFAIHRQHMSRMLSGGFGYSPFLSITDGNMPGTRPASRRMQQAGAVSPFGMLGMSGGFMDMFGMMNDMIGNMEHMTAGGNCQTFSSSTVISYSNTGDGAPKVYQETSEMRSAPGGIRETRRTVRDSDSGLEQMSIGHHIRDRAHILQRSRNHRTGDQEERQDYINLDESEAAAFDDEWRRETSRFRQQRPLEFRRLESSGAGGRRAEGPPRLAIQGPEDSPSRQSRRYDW
UniProt Q99550: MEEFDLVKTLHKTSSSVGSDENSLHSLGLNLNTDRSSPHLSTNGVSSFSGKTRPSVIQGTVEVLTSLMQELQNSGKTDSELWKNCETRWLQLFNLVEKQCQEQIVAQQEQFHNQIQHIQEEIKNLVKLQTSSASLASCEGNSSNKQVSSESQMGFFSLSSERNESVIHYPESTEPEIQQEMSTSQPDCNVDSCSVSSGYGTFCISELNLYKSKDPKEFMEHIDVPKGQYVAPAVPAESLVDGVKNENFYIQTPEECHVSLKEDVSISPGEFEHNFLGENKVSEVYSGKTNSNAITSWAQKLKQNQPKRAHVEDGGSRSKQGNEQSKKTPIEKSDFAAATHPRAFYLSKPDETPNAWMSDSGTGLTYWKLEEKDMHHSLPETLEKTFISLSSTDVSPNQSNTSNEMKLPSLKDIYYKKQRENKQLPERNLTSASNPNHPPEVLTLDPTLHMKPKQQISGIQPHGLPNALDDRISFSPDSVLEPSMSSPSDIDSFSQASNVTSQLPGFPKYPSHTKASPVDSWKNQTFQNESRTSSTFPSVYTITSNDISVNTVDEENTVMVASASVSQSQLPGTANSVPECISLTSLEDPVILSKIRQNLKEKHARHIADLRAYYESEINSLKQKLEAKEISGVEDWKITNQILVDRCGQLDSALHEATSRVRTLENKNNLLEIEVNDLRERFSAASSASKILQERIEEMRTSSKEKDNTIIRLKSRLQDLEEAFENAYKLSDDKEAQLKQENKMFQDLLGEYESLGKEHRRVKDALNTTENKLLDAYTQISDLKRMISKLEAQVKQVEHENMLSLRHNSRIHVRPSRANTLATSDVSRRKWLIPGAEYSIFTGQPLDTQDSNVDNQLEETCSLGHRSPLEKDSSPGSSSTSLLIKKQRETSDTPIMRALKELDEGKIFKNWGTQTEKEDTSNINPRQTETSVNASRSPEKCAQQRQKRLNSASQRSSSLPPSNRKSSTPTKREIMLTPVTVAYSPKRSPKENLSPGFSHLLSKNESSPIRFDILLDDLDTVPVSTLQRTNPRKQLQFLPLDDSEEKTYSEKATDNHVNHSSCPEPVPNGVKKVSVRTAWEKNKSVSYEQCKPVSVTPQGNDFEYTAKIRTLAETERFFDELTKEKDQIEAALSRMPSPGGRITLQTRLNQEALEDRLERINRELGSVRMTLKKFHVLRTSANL
UniProt Q8NDA8: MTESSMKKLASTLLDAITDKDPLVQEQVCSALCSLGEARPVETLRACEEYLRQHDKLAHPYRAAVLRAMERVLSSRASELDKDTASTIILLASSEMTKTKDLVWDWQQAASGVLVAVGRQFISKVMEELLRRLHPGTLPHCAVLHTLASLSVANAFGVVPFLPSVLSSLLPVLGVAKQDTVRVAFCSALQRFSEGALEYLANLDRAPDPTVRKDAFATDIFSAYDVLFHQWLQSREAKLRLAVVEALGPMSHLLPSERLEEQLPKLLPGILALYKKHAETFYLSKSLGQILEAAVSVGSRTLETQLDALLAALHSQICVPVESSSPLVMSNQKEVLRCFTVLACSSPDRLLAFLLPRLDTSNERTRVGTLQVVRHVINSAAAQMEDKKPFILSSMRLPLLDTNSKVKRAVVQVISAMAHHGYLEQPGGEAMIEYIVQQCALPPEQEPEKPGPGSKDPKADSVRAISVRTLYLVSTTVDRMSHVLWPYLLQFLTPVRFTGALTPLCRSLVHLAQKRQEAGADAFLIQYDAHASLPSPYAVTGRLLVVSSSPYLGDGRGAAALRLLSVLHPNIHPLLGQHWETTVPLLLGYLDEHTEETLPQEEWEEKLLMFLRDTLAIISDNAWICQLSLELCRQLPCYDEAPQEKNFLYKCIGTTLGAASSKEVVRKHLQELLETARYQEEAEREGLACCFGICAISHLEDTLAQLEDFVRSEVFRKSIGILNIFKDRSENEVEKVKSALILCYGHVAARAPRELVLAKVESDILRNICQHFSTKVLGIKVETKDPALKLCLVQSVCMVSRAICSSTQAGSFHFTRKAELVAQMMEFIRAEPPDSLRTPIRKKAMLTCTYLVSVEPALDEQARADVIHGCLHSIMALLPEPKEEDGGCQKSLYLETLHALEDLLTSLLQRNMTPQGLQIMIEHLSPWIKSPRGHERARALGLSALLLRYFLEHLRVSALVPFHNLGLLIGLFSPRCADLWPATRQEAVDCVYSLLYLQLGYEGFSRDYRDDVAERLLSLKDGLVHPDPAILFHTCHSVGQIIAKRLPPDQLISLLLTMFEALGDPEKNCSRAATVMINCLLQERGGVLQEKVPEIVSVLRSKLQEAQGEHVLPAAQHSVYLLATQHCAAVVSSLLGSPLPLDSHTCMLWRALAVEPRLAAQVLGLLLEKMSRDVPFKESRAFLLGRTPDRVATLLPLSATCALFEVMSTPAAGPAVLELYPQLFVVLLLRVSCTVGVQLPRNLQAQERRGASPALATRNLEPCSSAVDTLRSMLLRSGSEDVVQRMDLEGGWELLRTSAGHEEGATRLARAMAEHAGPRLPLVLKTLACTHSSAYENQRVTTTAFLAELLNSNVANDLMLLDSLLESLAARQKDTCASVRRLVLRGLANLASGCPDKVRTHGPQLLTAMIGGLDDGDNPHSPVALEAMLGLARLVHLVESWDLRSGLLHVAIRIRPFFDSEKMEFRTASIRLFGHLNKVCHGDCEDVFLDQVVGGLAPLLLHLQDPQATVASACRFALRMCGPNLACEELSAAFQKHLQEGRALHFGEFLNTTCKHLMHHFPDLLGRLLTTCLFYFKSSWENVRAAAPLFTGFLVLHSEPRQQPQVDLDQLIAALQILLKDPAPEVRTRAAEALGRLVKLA
UniProt P16455, whole entry, looked up: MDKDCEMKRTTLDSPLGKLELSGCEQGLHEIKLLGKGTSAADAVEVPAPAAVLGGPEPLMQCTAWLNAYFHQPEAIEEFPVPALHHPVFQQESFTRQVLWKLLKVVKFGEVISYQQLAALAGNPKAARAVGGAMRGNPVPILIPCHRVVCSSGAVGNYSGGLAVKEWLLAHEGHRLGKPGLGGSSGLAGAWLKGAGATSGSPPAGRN
UniProt Q9H8S9: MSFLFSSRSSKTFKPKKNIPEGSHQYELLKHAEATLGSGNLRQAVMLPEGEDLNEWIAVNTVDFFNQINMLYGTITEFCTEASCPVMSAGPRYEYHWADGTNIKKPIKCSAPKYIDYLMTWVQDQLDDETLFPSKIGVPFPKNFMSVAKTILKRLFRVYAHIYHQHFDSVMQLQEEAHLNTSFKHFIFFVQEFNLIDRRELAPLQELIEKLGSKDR
UniProt Q4G0A6: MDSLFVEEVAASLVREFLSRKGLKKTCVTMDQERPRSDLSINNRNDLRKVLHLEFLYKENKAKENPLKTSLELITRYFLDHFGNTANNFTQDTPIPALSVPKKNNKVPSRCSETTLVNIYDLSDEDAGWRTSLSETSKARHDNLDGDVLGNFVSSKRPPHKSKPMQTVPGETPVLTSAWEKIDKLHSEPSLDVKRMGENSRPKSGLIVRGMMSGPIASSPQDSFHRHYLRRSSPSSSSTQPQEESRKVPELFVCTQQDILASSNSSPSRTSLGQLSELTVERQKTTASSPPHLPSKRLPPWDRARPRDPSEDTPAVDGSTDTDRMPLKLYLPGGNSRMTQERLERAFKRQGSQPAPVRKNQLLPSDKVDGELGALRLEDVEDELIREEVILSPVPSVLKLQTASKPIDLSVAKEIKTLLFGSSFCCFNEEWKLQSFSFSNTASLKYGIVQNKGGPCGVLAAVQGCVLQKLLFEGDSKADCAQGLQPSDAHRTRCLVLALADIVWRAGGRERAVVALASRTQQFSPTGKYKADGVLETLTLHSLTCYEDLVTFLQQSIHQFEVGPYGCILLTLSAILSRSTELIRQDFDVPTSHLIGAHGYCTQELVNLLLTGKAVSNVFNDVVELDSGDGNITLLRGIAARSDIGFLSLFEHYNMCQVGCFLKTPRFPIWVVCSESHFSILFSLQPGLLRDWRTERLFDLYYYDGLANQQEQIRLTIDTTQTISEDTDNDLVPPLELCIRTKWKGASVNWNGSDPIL
UniProt Q8NB16: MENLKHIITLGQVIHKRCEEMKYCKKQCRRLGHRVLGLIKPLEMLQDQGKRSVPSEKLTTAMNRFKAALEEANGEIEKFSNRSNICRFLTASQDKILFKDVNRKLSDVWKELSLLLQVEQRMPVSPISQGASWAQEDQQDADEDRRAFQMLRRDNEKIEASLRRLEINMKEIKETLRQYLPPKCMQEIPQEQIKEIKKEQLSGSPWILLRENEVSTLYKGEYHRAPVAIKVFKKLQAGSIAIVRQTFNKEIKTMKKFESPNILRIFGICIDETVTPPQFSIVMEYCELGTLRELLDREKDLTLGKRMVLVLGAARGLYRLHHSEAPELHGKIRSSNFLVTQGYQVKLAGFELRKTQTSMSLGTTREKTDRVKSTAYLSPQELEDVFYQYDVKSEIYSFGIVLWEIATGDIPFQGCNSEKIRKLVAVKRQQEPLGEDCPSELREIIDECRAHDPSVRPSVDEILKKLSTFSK
UniProt Q9NP71: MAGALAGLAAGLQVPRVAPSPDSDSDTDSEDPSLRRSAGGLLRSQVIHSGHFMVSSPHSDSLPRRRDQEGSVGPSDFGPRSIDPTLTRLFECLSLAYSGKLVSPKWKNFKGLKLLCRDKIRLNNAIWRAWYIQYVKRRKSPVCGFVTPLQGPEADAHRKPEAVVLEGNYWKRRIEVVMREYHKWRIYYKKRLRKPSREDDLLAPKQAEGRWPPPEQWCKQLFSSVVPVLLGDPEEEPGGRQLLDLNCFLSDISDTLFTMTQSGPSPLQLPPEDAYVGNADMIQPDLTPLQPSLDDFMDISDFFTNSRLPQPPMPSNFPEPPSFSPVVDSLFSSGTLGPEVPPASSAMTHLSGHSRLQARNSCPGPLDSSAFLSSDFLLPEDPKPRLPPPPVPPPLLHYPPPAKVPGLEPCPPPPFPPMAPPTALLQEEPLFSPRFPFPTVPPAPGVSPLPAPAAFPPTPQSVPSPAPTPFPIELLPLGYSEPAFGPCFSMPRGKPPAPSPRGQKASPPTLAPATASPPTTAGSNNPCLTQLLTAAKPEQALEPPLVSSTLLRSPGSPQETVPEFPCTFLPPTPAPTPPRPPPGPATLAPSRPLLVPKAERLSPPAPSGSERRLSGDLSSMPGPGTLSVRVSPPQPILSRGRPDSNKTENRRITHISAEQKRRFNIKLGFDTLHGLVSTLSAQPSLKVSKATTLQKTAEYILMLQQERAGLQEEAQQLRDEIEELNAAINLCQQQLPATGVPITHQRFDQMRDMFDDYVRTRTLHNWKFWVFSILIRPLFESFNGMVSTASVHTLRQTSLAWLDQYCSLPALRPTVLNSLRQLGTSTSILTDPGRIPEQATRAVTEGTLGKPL
UniProt O96033: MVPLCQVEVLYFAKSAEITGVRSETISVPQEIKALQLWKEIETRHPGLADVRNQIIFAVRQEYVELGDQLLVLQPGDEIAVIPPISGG
UniProt Q7Z6M3: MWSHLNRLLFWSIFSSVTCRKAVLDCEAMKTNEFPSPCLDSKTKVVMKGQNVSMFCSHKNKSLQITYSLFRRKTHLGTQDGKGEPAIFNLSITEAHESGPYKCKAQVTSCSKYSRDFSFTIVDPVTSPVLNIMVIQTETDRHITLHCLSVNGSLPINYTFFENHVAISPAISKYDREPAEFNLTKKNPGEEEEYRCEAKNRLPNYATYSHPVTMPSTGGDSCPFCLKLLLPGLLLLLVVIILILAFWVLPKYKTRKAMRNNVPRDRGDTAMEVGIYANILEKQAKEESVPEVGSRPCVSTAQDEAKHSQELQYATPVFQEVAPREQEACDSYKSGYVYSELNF

What was measured:
Assay in all cases: log2 fold change, soluble protein after heating vs DMSO (PISA); higher = thermal stabilisation; K562 lysate, 10 uM; active = over 0.2 and 3.5 SD of the protein, either way, in both replicates (recomputed)
pictilisib = compound: CS(=O)(=O)N1CCN(Cc2cc3nc(-c4cccc5[nH]ncc45)nc(N4CCOCC4)c3s2)CC1 [pictilisib]
Procedure, shortened: (§1)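 Pellets of K562 cells were dounce-homogenised in PBS pH 7.4 with 1 mM MgCl2, and the crude extract was held at 1 mg/mL protein for a 30 min treatment with 10 μM compound. Aliquots were heated for 3 min over 48°C-58°C and pooled before NP-40 was added to 0.5% at 4°C. The supernatant from 21,000xg for 90 min was quantified by TMTpro 16plex LC-MS/MS with channel sums equalised. Values are reported from duplicates as log-two fold change in thermal stability relative to solvent controls.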

[1] = compound: C[C@H](C1=CC=C(C=C1)C(=O)NC2=C3C=CNC3=NC=C2)N
Procedure, shortened: as §1

duvelisib = compound: C[C@H](Nc1ncnc2nc[nH]c12)c1cc2cccc(Cl)c2c(=O)n1-c1ccccc1 [duvelisib]
Procedure, shortened: as §1

gandotinib = compound: Cc1cc(Nc2cc(CN3CCOCC3)c3nc(C)c(Cc4ccc(Cl)cc4F)n3n2)n[nH]1 [gandotinib]
Procedure, shortened: as §1

bafetinib = compound: Cc1ccc(NC(=O)c2ccc(CN3CC[C@H](N(C)C)C3)c(C(F)(F)F)c2)cc1Nc1nccc(-c2cncnc2)n1 [bafetinib]
Procedure, shortened: as §1

[2] = compound: Cc1cccc(CC(=O)N2CCc3c2ccc(-c2cn(C)c4ncnc(N)c24)c3F)n1
Procedure, shortened: as §1

crizotinib = compound: C[C@@H](Oc1cc(-c2cnn(C3CCNCC3)c2)cnc1N)c1c(Cl)ccc(F)c1Cl [crizotinib]
Procedure, shortened: as §1

tozasertib = compound: Cc1cc(Nc2cc(N3CCN(C)CC3)nc(Sc3ccc(NC(=O)C4CC4)cc3)n2)n[nH]1 [tozasertib]
Procedure, shortened: as §1

doramapimod = compound: Cc1ccc(-n2nc(C(C)(C)C)cc2NC(=O)Nc2ccc(OCCN3CCOCC3)c3ccccc23)cc1 [doramapimod]
Procedure, shortened: as §1

lapatinib = compound: CS(=O)(=O)CCNCc1ccc(-c2ccc3ncnc(Nc4ccc(OCc5cccc(F)c5)c(Cl)c4)c3c2)o1 [lapatinib]
Procedure, shortened: as §1

Measured: log2 fold change

MMACHC (UniProt Q9Y4U1)
inactive: pictilisib 0.005 | [1] -0.157 | duvelisib -0.083 | gandotinib -0.104 | bafetinib -0.067 | [2] 0.088

MIER3 isoform 2 (UniProt Q7Z3K6)
inactive: pictilisib 0.097 | crizotinib -0.066 | [1] -0.008 | duvelisib 0.023 | gandotinib -0.12 | tozasertib 0.064 | doramapimod 0.14 | bafetinib -0.013 | [2] 0.093

MRPL2 (UniProt Q5T653)
inactive: lapatinib -0.015 | pictilisib -0.045 | crizotinib -0.048 | [1] -0.029 | duvelisib 0.02 | gandotinib -0.041 | doramapimod 0.026 | bafetinib -0.029 | [2] 0.048

MITF (UniProt O75030)
inactive: crizotinib -0.046 | [1] 0.091 | duvelisib -0.042 | gandotinib -0.008 | tozasertib -0.056 | doramapimod 0.03 | [2] -0.049

MRNIP (UniProt Q6NTE8)
inactive: lapatinib 0.033 | pictilisib -0.152 | crizotinib -0.081 | [1] -0.087 | duvelisib 0.029 | gandotinib 0.005 | doramapimod 0.008 | bafetinib -0.029 | [2] -0.095

MRPL22 (UniProt Q9NWU5)
inactive: lapatinib -0.023 | crizotinib -0.047 | [1] -0.038 | gandotinib -0.018 | doramapimod 0.016 | [2] 0.05

MGAT1 (UniProt P26572)
inactive: lapatinib 0.058 | crizotinib -0.073 | [1] -0.101 | duvelisib -0.039 | gandotinib 0.043 | tozasertib -0.177 | doramapimod 0.005 | [2] 0.031

MME (UniProt P08473)
inactive: lapatinib 0.025 | pictilisib -0.024 | crizotinib 0.037 | [1] 0.037 | duvelisib 0.066 | gandotinib -0.002 | doramapimod 0.002 | bafetinib 0.058 | [2] 0.048

MICA (UniProt Q29983)
inactive: pictilisib -0.15 | [1] -0.336 | gandotinib 0 | bafetinib -0.012 | [2] 0.052

MLF2 (UniProt Q15773)
inactive: pictilisib -0.024 | crizotinib 0.042 | [1] 0.038 | duvelisib -0.111 | gandotinib -0.002 | tozasertib -0.085 | doramapimod 0 | bafetinib 0.141 | [2] -0.017

MRPL18 (UniProt Q9H0U6)
inactive: lapatinib 0.015 | crizotinib -0.023 | [1] 0.045 | duvelisib 0.093 | gandotinib -0.1 | tozasertib 0.062 | doramapimod 0.033 | [2] 0.083

MPHOSPH9 (UniProt Q99550)
inactive: pictilisib -0.318 | crizotinib -0.062 | [1] 0.221 | gandotinib -0.159 | tozasertib 0.031 | doramapimod 0.03 | bafetinib 0.088 | [2] -0.213

Reprinted from the listing (nine entries):
MMACHC (UniProt Q9Y4U1)
inactive: pictilisib 0.005 | [1] -0.157 | duvelisib -0.083 | gandotinib -0.104 | bafetinib -0.067 | [2] 0.088

MIER3 isoform 2 (UniProt Q7Z3K6)
inactive: pictilisib 0.097 | crizotinib -0.066 | [1] -0.008 | duvelisib 0.023 | gandotinib -0.12 | tozasertib 0.064 | doramapimod 0.14 | bafetinib -0.013 | [2] 0.093

MRPL2 (UniProt Q5T653)
inactive: lapatinib -0.015 | pictilisib -0.045 | crizotinib -0.048 | [1] -0.029 | duvelisib 0.02 | gandotinib -0.041 | doramapimod 0.026 | bafetinib -0.029 | [2] 0.048

MITF (UniProt O75030)
inactive: crizotinib -0.046 | [1] 0.091 | duvelisib -0.042 | gandotinib -0.008 | tozasertib -0.056 | doramapimod 0.03 | [2] -0.049

MRNIP (UniProt Q6NTE8)
inactive: lapatinib 0.033 | pictilisib -0.152 | crizotinib -0.081 | [1] -0.087 | duvelisib 0.029 | gandotinib 0.005 | doramapimod 0.008 | bafetinib -0.029 | [2] -0.095

MRPL22 (UniProt Q9NWU5)
inactive: lapatinib -0.023 | crizotinib -0.047 | [1] -0.038 | gandotinib -0.018 | doramapimod 0.016 | [2] 0.05

MGAT1 (UniProt P26572)
inactive: lapatinib 0.058 | crizotinib -0.073 | [1] -0.101 | duvelisib -0.039 | gandotinib 0.043 | tozasertib -0.177 | doramapimod 0.005 | [2] 0.031

MME (UniProt P08473)
inactive: lapatinib 0.025 | pictilisib -0.024 | crizotinib 0.037 | [1] 0.037 | duvelisib 0.066 | gandotinib -0.002 | doramapimod 0.002 | bafetinib 0.058 | [2] 0.048

MICA (UniProt Q29983)
inactive: pictilisib -0.15 | [1] -0.336 | gandotinib 0 | bafetinib -0.012 | [2] 0.052

Later entries:

MID1IP1 (UniProt Q9NPA3)
inactive: pictilisib 0.008 | crizotinib -0.017 | [1] 0.037 | duvelisib 0.047 | gandotinib -0.029 | tozasertib 0.025 | doramapimod 0 | bafetinib -0.098 | [2] -0.044

MPDZ (UniProt O75970)
inactive: lapatinib 0.046 | crizotinib 0.127 | [1] 0.099 | duvelisib -0.003 | gandotinib 0.016 | tozasertib 0.118 | doramapimod 0.053 | [2] -0.066

MROH1 (UniProt Q8NDA8)
inactive: pictilisib -0.073 | crizotinib -0.111 | [1] -0.205 | duvelisib 0.104 | gandotinib -0.058 | tozasertib 0.055 | doramapimod 0.074 | bafetinib -0.324 | [2] 0.196

MLF1 isoform 3 (UniProt P58340)
inactive: [1] 0.11 | gandotinib -0.11 | [2] -0.049

MNT (UniProt Q99583)
inactive: lapatinib 0.035 | crizotinib -0.017 | [1] -0.091 | duvelisib -0.06 | gandotinib -0.08 | tozasertib -0.124 | doramapimod -0.039 | [2] 0.093

MINDY2 (UniProt Q8NBR6)
inactive: lapatinib -0.04 | pictilisib 0.007 | crizotinib -0.048 | [1] 0.127 | gandotinib -0.04 | tozasertib 0.005 | doramapimod 0.016 | bafetinib -0.091 | [2] -0.123

MKKS (UniProt Q9HB66)
inactive: lapatinib 0.135 | tozasertib 0.044

MR1 (UniProt Q95460)
inactive: pictilisib 0.046 | duvelisib 0.089 | tozasertib -0.089 | bafetinib -0.047

MIGA2 (UniProt Q7L4E1)
inactive: duvelisib 0.037 | tozasertib -0.335

MGMT (UniProt P16455)
inactive: duvelisib -0.048

MIDEAS, A0A1C7CYX1
inactive: lapatinib 0.035 | crizotinib -0.088 | duvelisib -0.178 | doramapimod 0.077

MRPL16 (UniProt Q9NX20)
inactive: lapatinib 0.007 | pictilisib -0.076 | crizotinib -0.078 | duvelisib 0.069 | tozasertib -0.038 | doramapimod -0.048 | bafetinib -0.019

MOB1A (UniProt Q9H8S9)
inactive: tozasertib -0.051

MRC2 (UniProt Q9UBG0)
inactive: crizotinib -0.3 | [1] -0.192 | duvelisib -0.49 | gandotinib 0.075 | tozasertib 0.063 | doramapimod 0.035 | [2] -0.184

MINDY4 (UniProt Q4G0A6)
inactive: pictilisib 0.167 | [1] 0.143 | duvelisib -0.06 | gandotinib -0.071 | bafetinib -0.014 | [2] 0.035

MLKL (UniProt Q8NB16)
inactive: lapatinib -0.128 | pictilisib -0.013 | crizotinib 0.122 | [1] -0.138 | gandotinib 0.029 | tozasertib -0.047 | doramapimod -0.025 | bafetinib -0.137 | [2] 0.217

MIIP (UniProt Q5JXC2)
inactive: pictilisib -0.054 | crizotinib -0.082 | doramapimod 0.044 | bafetinib 0

MLXIPL (UniProt Q9NP71)
inactive: crizotinib -0.009 | [1] 0.056 | gandotinib 0.154 | doramapimod -0.049 | [2] 0.023

MOCS2 (UniProt O96033)
inactive: lapatinib 0.025 | crizotinib -0.065 | duvelisib 0.013 | doramapimod 0.012

MILR1 (UniProt Q7Z6M3)
inactive: crizotinib -0.015 | tozasertib -0.116 | doramapimod 0.031

MISP3 (UniProt Q96FF7)
inactive: lapatinib 0.04 | duvelisib 0.065

MINDY1 isoform 3 (UniProt Q8N5J2)
inactive: lapatinib -0.002 | pictilisib 0 | crizotinib -0.045 | duvelisib 0.051 | tozasertib -0.036 | doramapimod 0.051 | bafetinib -0.11
